Measurements taken from patent US8697725B2, “Tetrahydroquinoline derivatives and their pharmaceutical use” (GlaxoSmithKline LLC, priority 2009, dated 2014).
Where a name gives a salt, the structure may show the parent alone. Some results were stated once for a whole list of compounds, not compound by compound.

molecular target: T1, Bromodomains BRD2, BRD3 and BRD4; experiment: Fluorescence Anisotropy Binding Assay; details: recombinant human BRD2 (1-473), BRD3 (1-435), BRD4 (1-477); bound holds for at least one of the three, not stated which
T1 construct: fused on or other part: six-His tag at the N-terminal

Row | SMILES | pIC50 in one or more of the BRD2, BRD3 and BRD4 assays
1 | CC(=O)N1c2ccc(-c3cn(CC(=O)O)cn3)cc2[C@@H](NC(=O)OC(C)C)C[C@H]1C (racemic) [Example 90, {4-[(Cis)-1-acetyl-2-methyl-4-({[(1-methylethyl)oxy]carbonyl}amino)-1,2,3,4-tetrahydro-6-quinolinyl]-1H-imidazol-1-yl}acetic acid trifluoroacetate] | ≥ 6.0
2 | CC(=O)N1c2ccc(-c3cn(CCC(=O)OC(C)(C)C)cn3)cc2[C@@H](NC(=O)OC(C)C)C[C@H]1C (racemic) [Example 91, 1,1-Dimethylethyl 3-{-(cis)-4-[1-acetyl-2-methyl-4-({[(1-methylethyl)oxy]carbonyl}amino)-1,2,3,4-tetrahydro-6-quinolinyl]-1H-imidazol-1-yl}propanoate] | ≥ 6.0
3 | CC(=O)N1c2ccc(-c3cn(CCC(=O)O)cn3)cc2[C@@H](NC(=O)OC(C)C)C[C@H]1C (racemic) [Example 99, 3-{(Cis)-4-[1-acetyl-2-methyl-4-({[(1-methylethyl)oxy]carbonyl}amino)-1,2,3,4-tetrahydro-6-quinolinyl]-1H-imidazol-1-yl}propanoic acid trifluoroacetate] | ≥ 6.0
4 | CC(=O)N1c2ccc(-n3cnc(C)c3)cc2[C@H](NC(=O)OC(C)(C)C)C[C@@H]1C (relative stereo) [Example 123, 1,1-Dimethylethyl[(cis)-1-acetyl-2-methyl-6-(4-methyl-1H-imidazol-1-yl)-1,2,3,4-tetrahydro-4-quinolinyl]carbamate] | ≥ 6.0
5 | CNCCn1cc(-c2ccc3c(c2)[C@H](NC(=O)OC(C)C)C[C@H](C)N3C(C)=O)cn1.Cl [Example 62, 1-methylethyl((2S,4R)-1-acetyl-2-methyl-6-{1-[2-(methylamino)ethyl]-1H-pyrazol-4-yl}-1,2,3,4-tetrahydro-4-quinolinyl)carbamate hydrochloride] | ≥ 6.0
6 | CNCCc1ccc(-c2ccc3c(c2)[C@H](NC(=O)OC(C)C)C[C@H](C)N3C(C)=O)cc1.Cl [Example 98, 1-Methylethyl((2S,4R)-1-acetyl-2-methyl-6-{4-[2-(methylamino)ethyl]phenyl}-1,2,3,4-tetrahydro-4-quinolinyl)carbamate hydrochloride] | ≥ 6.0
7 | CC(=O)N1c2ccc(-c3ccccn3)cc2[C@H](NC(=O)OC(C)C)C[C@@H]1C [Example 101, 1-Methylethyl[(2S,4R)-1-acetyl-2-methyl-6-(2-pyridinyl)-1,2,3,4-tetrahydro-4-quinolinyl]carbamate] | ≥ 6.0
8 | CC(=O)N1c2ccc(-c3ccc(CCC(=O)O)cc3)cc2[C@H](NC(=O)OC(C)C)C[C@@H]1C [Example 102, 3-{4-[(2S,4R)-1-Acetyl-2-methyl-4-({[(1-methylethyl)oxy]carbonyl}amino)-1,2,3,4-tetrahydro-6-quinolinyl]phenyl}propanoic acid] | ≥ 6.0
9 | CC(=O)N1c2ccc(-c3ccc(CNC4CCNCC4)cc3)cc2[C@H](NC(=O)OC(C)C)C[C@@H]1C [Example 115, 1-Methylethyl((2S,4R)-1-acetyl-2-methyl-6-{4-[(4-piperidinylamino)methyl]phenyl}-1,2,3,4-tetrahydro-4-quinolinyl)carbamate] | ≥ 6.0
10 | CC(=O)N1c2ccc(-c3ccc(C#N)cc3)cc2[C@H](NC(=O)OC(C)C)C[C@@H]1C [Example 120, 1-Methylethyl[(2S,4R)-1-acetyl-6-(4-cyanophenyl)-2-methyl-1,2,3,4-tetrahydro-4-quinolinyl]carbamate] | ≥ 6.0

test system: TNFα; experiment: LPS Stimulated Whole Blood Measuring TNFα Levels Assay; assay type: cell-based; details: LPS 200 ng/ml, 24 hours, immunoassay
Experimental: LPS Stimulated Whole Blood Measuring TNFα Levels Assay
Activation of monocytic cells by agonists of toll-like receptors such as bacterial lipopolysaccharide (LPS) results in production of key inflammatory mediators including TNFα. Such pathways are widely considered to be central to the pathophysiology of a range of auto-immune and inflammatory disorders.
Compounds to be tested are diluted to give a range of appropriate concentrations and 1 ul of the dilution stocks is added to wells of a 96 plate. Following addition of whole blood (130 ul) the plates are incubated at 37 degrees (5% CO2) for 30 min before the addition of 10 ul of 2.8 ug/ml lipopolysaccharides (LPS), diluted in complete RPMI 1640 (final concentration=200 ng/ml), to give a total volume of 140 ul per well. After further incubation for 24 hours at 37 degrees, 140 ul of PBS are added to each well. The plates are sealed, shaken for 10 minutes and then centrifuged (2500 rpm×10 min). 100 ul of the supernatant are removed and TNFα levels assayed by immunoassay (typically by MesoScale Discovery technology) either immediately or following storage at −20 degrees. Dose response curves for each compound was generated from the data and an IC50 value was calculated.

Row | SMILES | pIC50, TNFα levels in LPS stimulated whole blood
11 | CC(=O)N1c2ccc(-c3ccc(CNC4CCNCC4)cc3)cc2[C@H](NC(=O)OC(C)C)C[C@@H]1C [Example 115, 1-Methylethyl((2S,4R)-1-acetyl-2-methyl-6-{4-[(4-piperidinylamino)methyl]phenyl}-1,2,3,4-tetrahydro-4-quinolinyl)carbamate] | ≥ 5.2
